Measurements as given in US4749782A (Smithkline Beckman Corporation, priority 1986, dated 1988).
Strings that start with PEPTIDE1 are HELM notation: dots part the residues, brackets hold end groups and non-standard residues.

Experiment: general procedure: Boc solid-phase peptide synthesis; BHA-resin; Gly-OCH2-phi-resin; DCC with HOBT; DCC/DMAP for the position 1 acid
Conditions: whole synthesis, scale 0.83 mmol

## PEPTIDE1{[MprEt].[D-TyrEt].F.V.N.C.P.R.G.[am]}$PEPTIDE1,PEPTIDE1,1:R3-6:R3$$$V2.0
  crude mass: 580 mg
